According to US6861256B2, “Therapeutic and diagnostic tools for impaired glucose tolerance conditions” (The General Hospital Corporation, priority 1997, dated 2005):

Tested on: C. elegans dauers
Test: Dauer recovery assay on drug plates
Assay type: in vivo
Conditions: for dauer recovery after temperature downshift with food: 15 degrees, atropine 1 mM
Description: Minimal media plates were used for the drug assays: 3.0 g NaCl, 20 g agarose (Sigma-Type II #A6877) and 970 ml of water. The autoclaved solution was cooled to 50-55° C. before 25 ml of 1M KPO4 (pH 6.0), 1.0 ml 1M CaCl2, 1.0 ml of 1M MgSO4, and 1 ml of 5 mg/ml cholesterol were added. In some assays, Escherichia coli (DH5α) bacteria arrested with streptomycin was added to each plate.
In some experiments, 100-200 eggs or synchronized L1s were put onto the drug plates. For all experiments described herein, about 10,000 L1s were placed in 10 ml of S Medium containing 1-2 ml of a 0.4% (w/v) solution of Escherichia coli DH5α bacteria in M9 solution (Wood (1988) (Cold Spring Harbor Laboratory Press, Cold Spring Harbor, N.Y.)) arrested with streptomycin, in a 25 ml flask on a rotating heated water bath at 25° C. For wild-type N2 dauers, 600 μl of the 0.4% bacterial solution and pheromone was also added to flask as described in Gottlieb and Ruvkun (1994) Genetics 137:107120. The pheromone preparation is a solution prepared as follows. Animals were grown in a large flask for several generations, and then spun down. The supernatant was boiled down to a brownish powder and then ethanol extracted. After 72 hours of liquid growth, animals were centrifuged and the supernatant removed. Animals were then resuspended in a 15 ml tube with a pre-heated 25° C. solution of 1% SDS and tubes were placed on a rocker at 25° C. for 30 minutes. Animals were centrifuged and the SDS removed. Animals were washed with either M9 or S medium (Wood (1988) (Cold Spring Harbor Laboratory Press, Cold Spring Harbor, N.Y.)) 4-6 times. After a final spin, 100-200 dauers were placed onto the drug plates without food. 24 and 48 hours later, plates were scored for the number of dauers and non-dauer adults.
For each strain tested, a control plate without any drug, with and without food was also tested. With no drug, there was 40% recovery in N2 dauers. The high value for the control plate in N2 may have been due to experimental procedure. […]

Compound: CN1[C@@H]2CC[C@H]1C[C@@H](OC(=O)C(CO)c1ccccc1)C2 (stereo partly drawn) [atropine]
- dauer recovery after temperature downshift with food (daf-2(e1370) dauers): completely inhibited dauer recovery
- dauer recovery after temperature downshift with food (daf-7(e1372) dauers): completely inhibited dauer recovery
- remained arrested at the dauer stage (wild-type N2 dauers, bacterial food + 1 mM atropine, 25 degrees, 42 hours): 82%
